Test results reported in PubChem BioAssay AID1487 (National Center for Advancing Translational Sciences (NCATS), 2009).
“And” between values parts separate entries of the source, which are not always exact repeats. Equal entries are not always repeated. The list shows a part of the results. Further columns of the screen follow, without active or inactive calls. Most of these compounds were active or inconclusive in the main read-out, so they are no random draw. The note in brackets gives the kind of curve behind each potency; many fits are weak.

Assay: qHTS Assay for Modulators of Lamin A Splicing
Settings: HeLa LMNA splicing GFP/RFP minigene ratio, 48 h
In short: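 S3 HeLa cells stably expressing lamin A-EGFP splicing minigene plus DsRed2, 600 cells/well, 48 h compound exposure at 37C. Laser-scanning cytometry; analysed as GFP (500-530 nm)/RFP (575-640 nm) total intensity ratio; 0.5% DMSO vehicle.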

[1] = measured here: RFP viability control channel
[2] = measured here: GFP splicing reporter channel

SMILES	AC50 [1]	AC50 [2]
Cc1nn(-c2ccccc2)c2[nH]c(C(F)(F)F)cc(=O)c12	11.2 µM [rising, partial curve]	
COc1cccc2c(=O)cc(C)n(CC(=O)Nc3ccc(C)c(C)c3)c12	11.2 µM [rising, partial curve]	8.91 µM [rising, partial curve]
Cc1cccc(-c2cc3nc4c(c(N5CCCC(O)C5)n3n2)CCC4)c1 (stereo not drawn)	11.2 µM [rising, partial curve, poor fit]	10 µM [rising, partial curve, poor fit]
N#CC(C#N)=C1C=CC=CN1/C(=C\c1ccccc1)C(=O)c1cccs1	15.8 µM [rising, partial curve]	
Cc1nc(-c2cccnc2)sc1C(N)=O	5.62 µM [falling, single point]	3.16 µM [falling, single point]
COc1cccc(Cc2nc3ccccc3nc2SCC(=O)Nc2cccc(C)c2)c1	6.31 µM [falling, single point]	
Cc1ccc(CS(=O)(=O)c2ccc(C(=O)N3CCN(c4ccccn4)CC3)cc2[N+](=O)[O-])cc1	1.78 µM [falling, partial curve, poor fit]	
COc1ccc2cc([C@H](C)C(=O)O)ccc2c1	2.82 nM [falling, full curve, poor fit] and 3.55 µM [rising, full curve]	
COc1ccc(NC(=S)NC(NC(=O)/C=C/c2ccccc2)C(Cl)(Cl)Cl)cc1 (stereo not drawn)	25.1 µM [falling, single point]	12.6 µM [falling, single point]
C/C(=N\Nc1nnc(-c2ccccc2)c(-c2ccccc2)n1)c1cccc([N+](=O)[O-])c1		35.5 µM [falling, single point]
Cc1cc(C)nc(N/N=C2/CCCC/C2=C\c2ccccc2)n1	22.4 µM [rising, single point]	31.6 µM [rising, single point]
O=C(CSc1nnc2c(n1)[nH]c1ccccc12)NCc1ccco1	1.12 µM [rising, full curve]	0.501 µM [rising, full curve, poor fit]
Cc1cc(C)nc(NS(=O)(=O)c2ccc(NC(=O)c3cc(-c4ccccc4)nc4ccccc34)cc2)n1	31.6 µM [rising, single point]	31.6 µM [rising, single point]
CC(Oc1ccc(Cl)cc1Cl)C(=O)N(C)c1ccccc1 (stereo not drawn)		0.316 µM [rising, partial curve]
CC(C)NC(=O)NC(=O)COc1ccc(Br)cc1Br	35.5 µM [rising, single point]	12.6 µM [rising, single point]
CCCN1CCN(c2nc(-c3cccs3)nc3ccccc23)CC1	22.4 µM [rising, single point]	11.2 µM [rising, partial curve, poor fit]
Cc1ccc(S(=O)(=O)N2CCC(C(=O)N3CCN(Cc4ccccc4)CC3)CC2)cc1	22.4 µM [rising, single point]	

SMILES	AC50 [1]	AC50 [2]
CCn1cc([N+](=O)[O-])c(C(=O)Nc2c(C)nn(Cc3cccc(F)c3)c2C)n1		1.58 µM [rising, partial curve, poor fit]
Cc1ccc(CN(C(=O)c2ccc(C(C)(C)C)cc2)c2ccccn2)o1		7.94 µM [falling, partial curve, poor fit]
CCn1c2ccccc2c2cc(/C=N/n3c(C)nnc3C)ccc21	10 µM [rising, single point]	
COc1ccc(N=Cc2c(O)ccc3ccccc23)cc1	35.5 µM [rising, single point]	
CC(C)CC(=O)Nc1ccc2nc(SCC(=O)N3CCc4ccccc43)sc2c1		2.82 µM [falling, full curve, poor fit]
O=S1(=O)CC/C(=N/Nc2ccc(C(F)(F)F)cn2)c2cc(F)ccc21	3.16 µM [falling, partial curve, poor fit]	
COC(=O)CCc1sc(Nc2ccc(Br)cc2)nc1-c1ccc(OC)cc1	35.5 µM [falling, single point]	25.1 µM [falling, single point]
CCn1ccc2cc(S(=O)(=O)N3CCCN(C(=O)Nc4ccccc4F)CC3)ccc21	0.158 µM [falling, full curve, poor fit]	0.158 µM [falling, full curve, poor fit]
NS(=O)(=O)c1ccc(NC(=O)COC(=O)C2(c3ccccc3F)CCCC2)cc1	14.1 µM [rising, partial curve, poor fit]	
O=C(NNC(=O)c1cccc(S(=O)(=O)N2CCc3ccccc32)c1)c1ccccc1	7.94 µM [rising, partial curve]	
Cc1cccc(-n2ccnc2SCC(=O)Nc2cccc3ccccc23)c1	12.6 µM [falling, partial curve, poor fit]	12.6 µM [falling, partial curve, poor fit]
CCN(CC)c1ccc(C2=NNC(=O)CC2C)cc1[N+](=O)[O-] (stereo not drawn)	0.112 µM [falling, full curve]	0.158 µM [falling, full curve, poor fit]
Cc1ccnc2nc(C(=O)OCC(=O)N(CC(C)C)CC(C)C)nn12		0.0158 µM [falling, full curve]
Cc1ncoc1C(=O)Nc1ccccc1-c1ccccc1	5.62 µM [falling, single point]	
COc1ccccc1C(=O)NNC1=C(C(=O)C(F)(F)F)CCC1	0.251 µM [falling, partial curve]	0.708 µM [falling, partial curve]
CC1=NN(C(N)=S)C(=O)C1N=Nc1ccccc1 (stereo not drawn)	3.98 µM [falling, partial curve, poor fit]	
COC(=O)c1ccc(COc2ccc(-c3nnn(CC(=O)NC(C)(C)C)n3)cc2)cc1		3.16 µM [falling, partial curve]

3 compounds from above, arranged by SMILES length, largest number first.
SMILES	AC50 [1]	AC50 [2]
CCn1cc([N+](=O)[O-])c(C(=O)Nc2c(C)nn(Cc3cccc(F)c3)c2C)n1		1.58 µM [rising, partial curve, poor fit]
CCn1ccc2cc(S(=O)(=O)N3CCCN(C(=O)Nc4ccccc4F)CC3)ccc21	0.158 µM [falling, full curve, poor fit]	0.158 µM [falling, full curve, poor fit]
CCn1c2ccccc2c2cc(/C=N/n3c(C)nnc3C)ccc21	10 µM [rising, single point]	
